According to paper PMC5607322:
These are yes or no findings as the source states them, for the method shown. In cells and extracts the contact can be indirect. Some entries that bind do so weakly or less than the wild type. Sequences can lack the tags named with a protein.

Protein sequences, listed by entry. Tags and fused reporters are not part of them.
UniProt Q182W3: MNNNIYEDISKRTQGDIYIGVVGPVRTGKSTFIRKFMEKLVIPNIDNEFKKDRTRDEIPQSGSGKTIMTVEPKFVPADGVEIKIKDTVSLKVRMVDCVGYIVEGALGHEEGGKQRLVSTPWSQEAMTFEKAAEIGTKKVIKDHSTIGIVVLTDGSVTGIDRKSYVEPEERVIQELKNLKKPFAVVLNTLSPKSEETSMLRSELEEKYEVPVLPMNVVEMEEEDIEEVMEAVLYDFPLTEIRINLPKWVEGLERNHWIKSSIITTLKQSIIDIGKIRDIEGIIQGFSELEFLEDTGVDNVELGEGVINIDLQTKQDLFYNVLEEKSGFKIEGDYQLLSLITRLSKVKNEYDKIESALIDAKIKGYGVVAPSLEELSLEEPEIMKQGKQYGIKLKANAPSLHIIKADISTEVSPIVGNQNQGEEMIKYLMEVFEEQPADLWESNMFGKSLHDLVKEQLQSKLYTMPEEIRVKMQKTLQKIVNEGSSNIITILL

T1: B. subtilis SpoVM-CPD-His6 (Bacillus subtilis) (UniProt P37817)
T1 sequence: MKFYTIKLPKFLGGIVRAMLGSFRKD


Biological target: T1, B. subtilis SpoVM-CPD-His6 (Bacillus subtilis)
Test: pull-down

| Molecule | binding |
| --- | --- |
| HA-tagged C. difficile SpoIVA (from UniProt Q182W3 1-491) | binds |
| HA-tagged B. subtilis SpoIVA (protein, UniProt P35149 1-492) MEKVDIFKDIAERTGGDIYLGVVGAVRTGKSTFIKKFMELVVLPNISNEADRARAQDELPQSAAGKTIMTTEPKFVPNQAMSVHVSDGLDVNIRLVDCVGYTVPGAKGYEDENGPRMINTPWYEEPIPFHEAAEIGTRKVIQEHSTIGVVITTDGTIGDIARSDYIEAEERVIEELKEVGKPFIMVINSVRPYHPETEAMRQDLSEKYDIPVLAMSVESMRESDVLSVLREALYEFPVLEVNVNLPSWVMVLKENHWLRESYQESVKETVKDIKRLRDVDRVVGQFSEFEFIESAGLAGIELGQGVAEIDLYAPDHLYDQILKEVVGVEIRGRDHLLELMQDFAHAKTEYDQVSDALKMVKQTGYGIAAPALADMSLDEPEIIRQGSRFGVRLKAVAPSIHMIKVDVESEFAPIIGTEKQSEELVRYLMQDFEDDPLSIWNSDIFGRSLSSIVREGIQAKLSLMPENARYKLKETLERIINEGSGGLIAIIL | binds |
